Assay results reported in the supplement of paper PMC8728848.
The other results are listed elsewhere or left out.

What was measured:
Assay in all cases: glycan array binding signal (z-score within array); higher = stronger binding
Conditions in all cases: glycan notation: IUPAC condensed, linker removed
[1] = biological target: Gal(b1-4)Glc
In short: (§1)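 The binding signal is a Z-score computed within each array and averaged over linkers. Arrays of the same protein sequence at different concentrations or buffers were also averaged together. Data originate from 3228 arrays in the Consortium for Functional Glycomics database, kept only where the protein sequence was available.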

[2] = biological target: Gal(b1-4)Glc6S
In short: as §1

[3] = biological target: Gal(b1-4)GlcNAc
In short: as §1

[4] = biological target: Gal(b1-4)GlcNAc(a1-6)Gal(b1-4)GlcNAc
In short: as §1

[5] = biological target: Gal(b1-4)GlcNAc(b1-2)Man
In short: as §1

[6] = biological target: Gal(b1-4)GlcNAc(b1-2)Man(a1-3)Man(b1-4)GlcNAc(b1-4)GlcNAc
In short: as §1

[7] = biological target: Gal(b1-4)GlcNAc(b1-2)Man(a1-3)[Gal(b1-4)GlcNAc(b1-2)Man(a1-6)]Man(b1-4)GlcNAc(b1-4)GlcNAc
In short: as §1

[8] = biological target: Gal(b1-4)GlcNAc(b1-2)Man(a1-3)[Gal(b1-4)GlcNAc(b1-2)Man(a1-6)]Man(b1-4)GlcNAc(b1-4)[Fuc(a1-6)]GlcNAc
In short: as §1

[9] = biological target: Gal(b1-4)GlcNAc(b1-2)Man(a1-3)[Gal(b1-4)GlcNAc(b1-2)Man(a1-6)][Gal(b1-4)GlcNAc(b1-4)]Man(b1-4)GlcNAc(b1-4)[Fuc(a1-6)]GlcNAc
In short: as §1

[10] = biological target: Gal(b1-4)GlcNAc(b1-2)Man(a1-3)[Gal(b1-4)GlcNAc(b1-2)Man(a1-6)][GlcNAc(b1-4)]Man(b1-4)GlcNAc(b1-4)[Fuc(a1-6)]GlcNAc
In short: as §1

[11] = biological target: Gal(b1-4)GlcNAc(b1-2)Man(a1-3)[GlcNAc(b1-2)Man(a1-6)]Man(b1-4)GlcNAc(b1-4)GlcNAc
In short: as §1

[12] = biological target: Gal(b1-4)GlcNAc(b1-2)Man(a1-3)[GlcNAc(b1-4)][Gal(b1-4)GlcNAc(b1-2)Man(a1-6)]Man(b1-4)GlcNAc(b1-4)GlcNAc
In short: as §1

[13] = biological target: Gal(b1-4)GlcNAc(b1-2)Man(a1-3)[Man(a1-6)]Man(b1-4)GlcNAc(b1-4)GlcNAc
In short: as §1

[14] = biological target: Gal(b1-4)GlcNAc(b1-2)Man(a1-6)Man(b1-4)GlcNAc(b1-4)GlcNAc
In short: as §1

[15] = biological target: Gal(b1-4)GlcNAc(b1-2)Man(a1-6)[GlcNAc(b1-2)Man(a1-3)]Man(b1-4)GlcNAc(b1-4)GlcNAc
In short: as §1

[16] = biological target: Gal(b1-4)GlcNAc(b1-2)Man(a1-6)[Man(a1-3)]Man(b1-4)GlcNAc(b1-4)GlcNAc
In short: as §1

[17] = biological target: Gal(b1-4)GlcNAc(b1-2)[Gal(b1-4)GlcNAc(b1-4)]Man(a1-3)[Gal(b1-4)GlcNAc(b1-2)Man(a1-6)]Man(b1-4)GlcNAc(b1-4)GlcNAc
In short: as §1

[18] = biological target: Gal(b1-4)GlcNAc(b1-2)[Gal(b1-4)GlcNAc(b1-4)]Man(a1-3)[Gal(b1-4)GlcNAc(b1-2)[Gal(b1-4)GlcNAc(b1-6)]Man(a1-6)]Man(b1-4)GlcNAc(b1-4)GlcNAc
In short: as §1

[19] = biological target: Gal(b1-4)GlcNAc(b1-2)[Gal(b1-4)GlcNAc(b1-4)]Man(a1-3)[GlcNAc(b1-4)][Gal(b1-4)GlcNAc(b1-2)Man(a1-6)]Man(b1-4)GlcNAc(b1-4)GlcNAc
In short: as §1

[20] = biological target: Gal(b1-4)GlcNAc(b1-2)[Gal(b1-4)GlcNAc(b1-4)]Man(a1-3)[GlcNAc(b1-4)][Gal(b1-4)GlcNAc(b1-2)[Gal(b1-4)GlcNAc(b1-6)]Man(a1-6)]Man(b1-4)GlcNAc(b1-4)GlcNAc
In short: as §1

[21] = biological target: Gal(b1-4)GlcNAc(b1-2)[Gal(b1-4)GlcNAc(b1-6)]Man(a1-6)[Gal(b1-4)GlcNAc(b1-2)Man(a1-3)]Man(b1-4)GlcNAc(b1-4)GlcNAc
In short: as §1

[22] = biological target: Gal(b1-4)GlcNAc(b1-2)[Gal(b1-4)GlcNAc(b1-6)]Man(a1-6)[Gal(b1-4)GlcNAc(b1-2)Man(a1-3)]Man(b1-4)GlcNAc(b1-4)[Fuc(a1-6)]GlcNAc
In short: as §1

B1: Mermaid1 (Stilbonema majum) (protein)
chain: MGSSHHHHHHSSGLVPRGSHMAASGWLRSPQGTVVKLYRRSLSWSKADEFCKDVDGRLVVDRTADMHLFLIKNVLKEKKSRVWVGLRRTAPHSRTWIWSDGTRQNEDDLDANLWLRDEPNDAAGEEECALFMYSPWEKAWGLNDYLCRGGCRSYQFICEKWIR
- glycan array binding signal (z-score) [1]: -0.607
- glycan array binding signal (z-score) [2]: 1.17
- glycan array binding signal (z-score) [3]: -0.713
- glycan array binding signal (z-score) [4]: -0.161
- glycan array binding signal (z-score) [5]: -0.052
- glycan array binding signal (z-score) [6]: -0.913
- glycan array binding signal (z-score) [7]: -0.772
- glycan array binding signal (z-score) [8]: -0.453
- glycan array binding signal (z-score) [9]: -0.657
- glycan array binding signal (z-score) [10]: -0.863
- glycan array binding signal (z-score) [11]: -0.648
- glycan array binding signal (z-score) [12]: -0.595
- glycan array binding signal (z-score) [13]: 2.41
- glycan array binding signal (z-score) [14]: -0.428
- glycan array binding signal (z-score) [15]: -0.397
- glycan array binding signal (z-score) [16]: -0.705
- glycan array binding signal (z-score) [17]: 0.823
- glycan array binding signal (z-score) [18]: -0.739
- glycan array binding signal (z-score) [19]: -0.873
- glycan array binding signal (z-score) [20]: -1.01
- glycan array binding signal (z-score) [21]: -0.567
- glycan array binding signal (z-score) [22]: -0.512
